No constants are given. Whether binding was seen depends on the method and setting. Binding seen in cells or lysates may run through a third protein. A result given as binding can be weak or reduced; the word gives no strength.
Target: Flag-NRF2 (NF-E2-related factor 2) (UniProt Q16236)
Assay: co-IP; HEK293T cells co-transfected with Flag-NRF2 and p(HA)HIF1alpha-P402A-P564A, 48 h; lysed in caspase lysis buffer; Flag antibody 4 h at 4 °C, then magnetic beads 1 h; washed 4x; western blot with anti-NRF2 and anti-HA; control IP without antibody

Protein sequences, listed by entry. Tags and fused reporters are not part of them. Lines headed by an entry give the natural chain unless they say otherwise; changes in a name come on top.
UniProt Q16236: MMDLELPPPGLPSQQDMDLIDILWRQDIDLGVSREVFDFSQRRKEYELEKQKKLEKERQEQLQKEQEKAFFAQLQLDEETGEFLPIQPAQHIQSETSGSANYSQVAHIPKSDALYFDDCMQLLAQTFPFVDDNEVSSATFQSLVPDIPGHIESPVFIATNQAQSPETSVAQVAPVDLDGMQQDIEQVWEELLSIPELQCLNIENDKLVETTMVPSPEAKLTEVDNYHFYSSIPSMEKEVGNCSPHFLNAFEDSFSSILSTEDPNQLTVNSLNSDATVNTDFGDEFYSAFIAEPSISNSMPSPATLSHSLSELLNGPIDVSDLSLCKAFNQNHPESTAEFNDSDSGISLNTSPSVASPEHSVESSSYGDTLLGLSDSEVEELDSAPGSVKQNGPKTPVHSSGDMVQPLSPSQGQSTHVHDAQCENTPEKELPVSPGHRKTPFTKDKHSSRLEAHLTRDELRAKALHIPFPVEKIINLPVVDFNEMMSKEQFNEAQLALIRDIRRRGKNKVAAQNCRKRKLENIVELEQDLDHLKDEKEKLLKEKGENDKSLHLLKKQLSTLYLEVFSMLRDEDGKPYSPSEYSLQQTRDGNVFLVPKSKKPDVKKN
UniProt Q16665: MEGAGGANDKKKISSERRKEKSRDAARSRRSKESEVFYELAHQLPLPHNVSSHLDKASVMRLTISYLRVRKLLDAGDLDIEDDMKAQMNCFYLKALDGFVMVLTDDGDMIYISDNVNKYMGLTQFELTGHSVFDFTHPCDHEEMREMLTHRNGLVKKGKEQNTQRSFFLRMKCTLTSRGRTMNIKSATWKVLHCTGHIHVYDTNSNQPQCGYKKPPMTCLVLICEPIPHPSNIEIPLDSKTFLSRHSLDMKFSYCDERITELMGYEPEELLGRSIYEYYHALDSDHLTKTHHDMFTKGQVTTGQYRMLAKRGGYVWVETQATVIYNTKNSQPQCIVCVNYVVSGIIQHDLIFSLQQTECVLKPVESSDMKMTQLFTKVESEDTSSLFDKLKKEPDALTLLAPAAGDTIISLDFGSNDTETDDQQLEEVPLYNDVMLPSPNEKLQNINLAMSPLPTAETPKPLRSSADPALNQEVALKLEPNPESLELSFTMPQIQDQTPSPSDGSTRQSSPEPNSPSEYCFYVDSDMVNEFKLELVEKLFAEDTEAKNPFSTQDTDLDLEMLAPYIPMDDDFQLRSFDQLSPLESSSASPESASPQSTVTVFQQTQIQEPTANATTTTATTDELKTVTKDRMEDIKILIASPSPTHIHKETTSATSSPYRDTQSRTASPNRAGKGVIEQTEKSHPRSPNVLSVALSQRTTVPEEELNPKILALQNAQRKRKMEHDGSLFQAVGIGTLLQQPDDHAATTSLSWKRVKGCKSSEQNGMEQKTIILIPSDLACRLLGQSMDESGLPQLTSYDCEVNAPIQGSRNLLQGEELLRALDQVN

binding: binds
Substance: (HA)HIF1alpha (P402A,P564A), non-degradable/oxygen-stable form of HIF-1α (from UniProt Q16665 1-826)

Source: paper PMC7806930
